Test results reported in paper PMC4619884.
Where two headings read alike, the source gives them in different places. No constants are given. Whether binding was seen depends on the method and setting. In cells and extracts the contact can be indirect. A yes stands for co-enrichment or nearness to the bait. Other partners may have been found.

By UniProt entry, the sequences of proteins in these tests, tags left out.
UniProt P47746: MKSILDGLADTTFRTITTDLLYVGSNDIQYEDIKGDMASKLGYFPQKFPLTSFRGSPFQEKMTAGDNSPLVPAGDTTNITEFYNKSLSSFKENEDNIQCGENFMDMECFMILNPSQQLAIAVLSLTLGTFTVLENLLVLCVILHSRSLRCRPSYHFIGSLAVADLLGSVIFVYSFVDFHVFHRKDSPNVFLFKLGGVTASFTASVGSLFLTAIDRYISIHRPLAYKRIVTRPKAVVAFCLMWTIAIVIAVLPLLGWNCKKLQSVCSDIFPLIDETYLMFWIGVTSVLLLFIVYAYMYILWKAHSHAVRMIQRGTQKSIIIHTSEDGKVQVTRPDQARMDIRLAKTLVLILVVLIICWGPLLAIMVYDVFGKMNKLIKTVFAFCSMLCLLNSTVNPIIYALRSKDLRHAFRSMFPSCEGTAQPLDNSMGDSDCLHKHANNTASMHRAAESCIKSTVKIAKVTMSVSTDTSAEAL
UniProt Q5SQX6: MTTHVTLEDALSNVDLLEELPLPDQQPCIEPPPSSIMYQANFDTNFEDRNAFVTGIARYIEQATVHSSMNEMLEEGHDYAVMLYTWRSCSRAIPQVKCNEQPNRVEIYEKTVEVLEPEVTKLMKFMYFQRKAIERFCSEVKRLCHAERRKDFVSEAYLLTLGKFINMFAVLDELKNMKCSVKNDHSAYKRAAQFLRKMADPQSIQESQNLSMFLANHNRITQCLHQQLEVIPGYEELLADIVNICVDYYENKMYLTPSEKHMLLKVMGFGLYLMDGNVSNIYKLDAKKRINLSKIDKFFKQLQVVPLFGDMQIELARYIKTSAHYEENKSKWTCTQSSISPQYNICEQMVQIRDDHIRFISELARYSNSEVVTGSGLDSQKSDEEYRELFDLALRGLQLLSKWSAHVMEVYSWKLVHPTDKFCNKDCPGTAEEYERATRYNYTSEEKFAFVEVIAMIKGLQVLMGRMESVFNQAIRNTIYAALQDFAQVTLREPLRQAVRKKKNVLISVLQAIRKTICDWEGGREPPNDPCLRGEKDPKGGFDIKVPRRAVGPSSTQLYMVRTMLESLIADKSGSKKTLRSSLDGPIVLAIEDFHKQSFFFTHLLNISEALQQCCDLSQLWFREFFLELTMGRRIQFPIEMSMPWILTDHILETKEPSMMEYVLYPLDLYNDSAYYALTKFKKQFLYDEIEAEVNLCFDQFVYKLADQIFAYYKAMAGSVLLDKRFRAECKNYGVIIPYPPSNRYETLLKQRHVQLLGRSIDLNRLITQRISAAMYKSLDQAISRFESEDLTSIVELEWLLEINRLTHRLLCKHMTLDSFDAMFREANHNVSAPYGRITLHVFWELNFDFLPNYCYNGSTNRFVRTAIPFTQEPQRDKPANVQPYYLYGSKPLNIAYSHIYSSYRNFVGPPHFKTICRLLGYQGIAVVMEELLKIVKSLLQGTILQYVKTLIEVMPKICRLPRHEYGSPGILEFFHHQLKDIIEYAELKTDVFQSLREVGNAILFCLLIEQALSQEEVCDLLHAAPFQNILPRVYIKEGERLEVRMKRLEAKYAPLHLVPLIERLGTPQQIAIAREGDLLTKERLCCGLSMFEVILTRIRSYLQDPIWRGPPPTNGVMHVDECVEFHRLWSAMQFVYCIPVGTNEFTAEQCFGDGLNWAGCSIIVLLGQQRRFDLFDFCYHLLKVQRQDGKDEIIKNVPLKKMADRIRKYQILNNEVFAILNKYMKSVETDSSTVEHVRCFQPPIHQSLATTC
UniProt P21279: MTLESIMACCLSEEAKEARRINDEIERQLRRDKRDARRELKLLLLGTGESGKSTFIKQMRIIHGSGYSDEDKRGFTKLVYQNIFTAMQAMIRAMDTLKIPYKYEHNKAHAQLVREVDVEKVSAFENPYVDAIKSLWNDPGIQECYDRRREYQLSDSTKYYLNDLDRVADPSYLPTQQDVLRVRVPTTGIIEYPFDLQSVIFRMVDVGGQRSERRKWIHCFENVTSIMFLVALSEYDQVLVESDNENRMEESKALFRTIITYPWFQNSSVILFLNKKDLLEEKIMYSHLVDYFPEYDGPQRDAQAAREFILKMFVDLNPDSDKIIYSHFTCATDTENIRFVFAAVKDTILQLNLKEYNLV

B1: cannabinoid receptor-interacting protein 1, endogenous in mouse cortex (protein, UniProt Q5M8N0 1-164)
chain: MGDLPGLVRLSIALRIQPNDGPVFFKVDGQRFGQNRTIKLLTGSSYKVEVKIKPTTLQVENISIGGVLVPLELKGKEPDGERVVYTGIYDTEGVAPTKSGERQPIQITMPFTDIGTFETVWQVKFYNYHKRDHCQWGSPFSVIEYECKPNETRSLMWVNKESFL
B2: Wiskott-Aldrich syndrome protein-family verprolin-homologous protein 1 (WAVE1), endogenous in mouse cortex (protein, UniProt Q8R5H6 1-559)
chain: MPLVKRNIDPRHLCHTALPRGIKNELECVTNISLANIIRQLSSLSKYAEDIFGELFNEAHSFSFRVNSLQERVDRLSVSVTQLDPKEEELSLQDITMRKAFRSSTIQDQQLFDRKTLPIPLQETYDVCEQPPPLNILTPYRDDGKEGLKFYTNPSYFFDLWKEKMLQDTEDKRKEKRKQKQKNLDRPHEPEKVPRAPHDRRREWQKLAQGPELAEDDADLLHKHIEVANGPASHYETRPQTYVDHMDGSYSLSALPFSQMSELLTRAEERVLVRPHEPPPPPPMHGAGDAKPTPTCISSATGLIENRPQSPAAGRTPVFVSPTPPPPPPPLPSALSTSSLRASMTSTPPPPVPPPPPPPATALQAPAVPPPPAPLQIAPGVLHPAPPPIAPPLVQPSPPVARAAPVCETVPVHPLPQGEVQGLPPPPPPPPLPPPGIRPSSPVAVAALAHPPSGLHPAPSTAPGPHAPLMPPSPPSQVLPASEPKRHPSTLPVISDARSVLLEAIRKGIQLRKVEEQREQEAKHERIENDVATILSRRIAVEYSDSEDDSEFDEVDWLE
B3: NCK-associated protein 1 (NCKAP1), endogenous in mouse cortex (protein, UniProt P28660 1-1128)
chain: MSRSVLQPSQQKLAEKLTILNDRGVGMLTRLYNIKKACGDPKAKPSYLIDKNLESAVKFIVRKFPAVETRNNNQQLAQLQKEKSEILKNLALYYFTFVDVMEFKDHVCDLLNTIDVCQVFFDITVNFDLTKNYLDLTVTYTTLMILLSRIEERKAIIGLYNYAHEMTHGASDREYPRLGQMIVDYENPLKKMMEEFVPHSKSLSDALISLQMVYPRRNLSADQWRNAQLLSLISAPSTMLNPAQSDTMPCEYLSLDAMEKWIIFGFILCHGMLNTEATALNLWKLALQSSSCLSLFRDEVFHIHKAAEDLFVNIRGYNKRINDIRECKEAAVSHAGSMHRERRKFLRSALKELATVLSDQPGLLGPKALFVFMALSFARDEIIWLLRHADNMPKKSADDFIDKHIAELIFYMEELRAHVRKYGPVMQRYYVQYLSGFDAVVLNELVQNLSVCPEDESIIMSSFVNTMTSLSVKQVEDGEVFDFRGMRLDWFRLQAYTSVSKASLSLADHRELGKMMNTIIFHTKMVDSLVEMLVETSDLSIFCFYSRAFEKMFQQCLELPSQSRYSIAFPLLCTHFMSCTHELCPEERHHIGDRSLSLCNMFLDEMAKQARNLITDICTEQCTLSDQLLPKHCAKTISQAVNKKSKKQTGKKGEPEREKPGVESMRKNRLVVTNLDKLHTALSELCFSINYVPNMAVWEHTFTPREYLTSHLEIRFTKSIVGMTMYNQATQEIAKPSELLTSVRAYMTVLQSIENYVQIDITRVFNNVLLQQTQHLDSHGEPTITSLYTNWYLETLLRQVSNGHIAYFPAMKAFVNLPTENELTFNAEEYSDISEMRSLSELLGPYGMKFLSESLMWHISSQVAELKKLVVENVDVLTQMRTSFDKPDQMAALFKRLSSVDSVLKRMTIIGVILSFRSLAQEALRDVLSYHIPFLVSSIEDFKDHIPRETDMKVAMNVYELSSAAGLPCEIDPALVVALSSQKSENISPEEEYKIACLLMVFVAVSLPTLASNVMSQYSPAIEGHCNNIHCLAKAINQIAAALFTIHKGSIEDRLKEFLALASSSLLKIGQETDKTTTRNRESVYLLLDMIVQESPFLTMDLLESCFPYVLLRNAYHAVYKQSVTSSA

Assays:
[1] = target: EGFP-tagged CB1 receptor (cannabinoid type 1 receptor), expressed from rAAV in mouse cortex (UniProt P47746); assay: affinity purification with mass spectrometry; GFP-nanotrap beads on Na-cholate-solubilised cortical membrane fractions of mice expressing CB1-EGFP or GFP (control); nano-LC MS/MS; 5 independent immunoprecipitations; rPQ > 4 taken as specific
[2] = target: EGFP-tagged CB1 receptor (cannabinoid type 1 receptor), expressed from rAAV in mouse cortex (UniProt P47746); assay: as above; remark: listed apart in the source

| Molecule | binding [1] | binding [2] |
| --- | --- | --- |
| cytoplasmic FMR1-interacting protein 2 (CYFIP2), endogenous in mouse cortex (from UniProt Q5SQX6 1-1253) | binds | – |
| endogenous CB1 receptor (cannabinoid type 1 receptor) of mouse cortex (from UniProt P47746 1-473) | binds | – |
| guanine nucleotide-binding protein Gq, endogenous in mouse cortex (from UniProt P21279 1-359) | binds | – |
| B1 | – | binds |
| B2 | – | binds |
| B3 | – | binds |
